Measurements reported in PubChem BioAssay AID1259308 (NCATS, 2017)

Screen: 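Candidate targets for better recombinant protein yield in mammalian cells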 (primary screen)
Cell system: human HEK293 embryonic kidney cells stably expressing firefly luciferase (HEK-CMV-Luc2-Hygro)
Reagent: single siRNA against human genes, 0.8 pmol siRNA per well
Time to read-out: 72 h
Measured: 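Luciferase light (ONE-Glo) measured on one replicate plate set and viability (CellTiter-Glo) on the other, scaled to a negative control siRNA, with robust z-scores and luciferase per cell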
Direction: total luciferase, z-score: higher = more reporter protein produced
Hit rule: 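An siRNA counts as active if its total luciferase robust z-score exceeds 3; genes with two or more such siRNAs out of three were retested with fresh siRNAs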
Meaning of the calls: active = raised luciferase; inactive = no rise
The deposit covers about 59,000 reagents; this is a random part of them. About 1,510 of all reagents (2.6%) count as active. 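Calls use total luciferase alone and ignore viability, so some active siRNAs may act by altering cell number.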 A number with no mark means an inactive call. The numbers tell different reagents against one gene apart. Further read-outs or replicates are left out here.

What is on record for FAM9A #1?
total luciferase, z-score: -1.44

Which result is listed for FAM9A #2?
total luciferase, z-score: -2.26

With FAM9A #3, what was measured?
total luciferase, z-score: -0.82

With ZNF486 #1, what does the deposit list?
total luciferase, z-score: 0.71

With ZNF486 #2, what was measured?
total luciferase, z-score: -2.48

For ZNF486 #3, what does the deposit list?
total luciferase, z-score: -1.5

What did the screen give for TTI2 #1?
total luciferase, z-score: 0.0319

How did the screen score TTI2 #2?
total luciferase, z-score: 0.112

With TTI2 #3, what does the deposit list?
total luciferase, z-score: -0.425

With THOC5 #1, what does the deposit list?
total luciferase, z-score: -1

With THOC5 #2, what does the deposit list?
total luciferase, z-score: -0.874

With THOC5 #3, how do the results read?
total luciferase, z-score: -0.206

With ALKBH6 #1, what does the deposit list?
total luciferase, z-score: 0.981

Which result is listed for ALKBH6 #2?
total luciferase, z-score: 1.51

With ALKBH6 #3, what was measured?
total luciferase, z-score: 0.797

What did the screen give for LONRF2 #1?
total luciferase, z-score: 2.06

What did the screen give for LONRF2 #2?
total luciferase, z-score: -2.09

What is on record for LONRF2 #3?
total luciferase, z-score: -0.583

With SPMIP6 #1, what does the deposit list?
total luciferase, z-score: -0.21

With SPMIP6 #2, how do the results read?
total luciferase, z-score: 1.12

With SPMIP6 #3, what was measured?
total luciferase, z-score: 0.922

How did the screen score SPINK6 #1?
total luciferase, z-score: -0.823

What is on record for SPINK6 #2?
total luciferase, z-score: -0.0248

What did the screen give for SPINK6 #3?
total luciferase, z-score: -0.768

For TRAPPC11 #1, what does the deposit list?
total luciferase, z-score: 0.347

With TRAPPC11 #2, what was measured?
total luciferase, z-score: -0.925

Which result is listed for TRAPPC11 #3?
total luciferase, z-score: 0.0427

Quoted from the entries so far (3 entries):
SPINK6 #1 → total luciferase, z-score: -0.823
SPINK6 #2 → total luciferase, z-score: -0.0248
SPINK6 #3 → total luciferase, z-score: -0.768

The listing continues:
For LOC730668 #1, what was measured?
total luciferase, z-score: 2.14

What did the screen give for LOC730668 #2?
total luciferase, z-score: -0.151

What did the screen give for LOC730668 #3?
total luciferase, z-score: -1.2

How did the screen score GIMAP5 #1?
total luciferase, z-score: 0.794

What is on record for GIMAP5 #2?
total luciferase, z-score: 0.306

For GIMAP5 #3, what does the deposit list?
total luciferase, z-score: -1.59

Which result is listed for ALKAL2 #1?
total luciferase, z-score: -0.254

How did the screen score ALKAL2 #2?
total luciferase, z-score: 0.513

For ALKAL2 #3, what was measured?
total luciferase, z-score: 2.04

What did the screen give for GTF2F1 #1?
total luciferase, z-score: 0.994

How did the screen score GTF2F1 #2?
total luciferase, z-score: 0.524

What is on record for GTF2F1 #3?
total luciferase, z-score: 1.56

For CFDP1 #1, how do the results read?
total luciferase, z-score: 0.42

What did the screen give for CFDP1 #2?
total luciferase, z-score: -0.743

Which result is listed for CFDP1 #3?
total luciferase, z-score: -1.22
